The text below walks through data of publication PMC3093354.

In test [1] the target is LIN-54 (wild-type), Gal4 DNA-binding domain fusion (C. elegans). The experiment in a line: two-hybrid; yeast two-hybrid; LIN-54 (wild-type or G252E/A442T) as Gal4 DNA-binding domain bait, LIN-9 as Gal4 activation domain prey; permissive and selective media.
Test [2] concerns the target LIN-54^G252E/A442T, Gal4 DNA-binding domain fusion (C. elegans). The description is as above.

Results are given in words; binding and its absence hold for the method and conditions named. A result given as binding can be weak or reduced; the word gives no strength. Where a sequence is shown, tags or fusion partners need not be part of it.

B1: LIN-9, Gal4 activation domain fusion (protein, UniProt P30630 1-644)
chain: MSSAVRSPRKKAASDTSDPDRTSSPYSLRETSKVPSRYRNEELYLSPSRSIKRTGSPKKSPAKRLNGGRDSPSVNSLTRNSSLTMLAKAALDYESSSCALEYIFQPKEERRPPRRALALSPPPAPSNDLLAKDLEMIEMHQNLVAGLDDLDNPANMTNEAVEHRDTQSFFNMFSTDQERSAMMKQFKTYKNQTSEDVSTFMRANIKKLYNLLRYKKARQWVMCEFFYSAIDEQIFKEENEFATIIRESFPNLKNWNLTRIEWRSIRKLLGKPRRCSKVFFEEERMYLEEKRMKIRSVYEGSYLNDPSIDLKDLPAKLPRPMVVGNRVFARIRNPYDGIYSGIIDAVIPKGFRIIFDKPDIPPTLVSDTEILLDGKLDLLSIAYFIEQANSKLPSGVRPFVAAVRDSSHPHLVRDVLVSRKIERSGGPLMGPNDERLNGKNAEMVGNFPLKFLVNLVKLTKLIDIKKGLIRQLNELNADAEIQNMTSDKYSKAFQEKYAKTIIDLEHVNQNIDINMNGIQDHHMYFSSNDISTSNMKPEAVRQMCSQQAGRFVEHCNQGLNVENVHALTLIQSLTAVLLQVRTMGTQKISAVDLQSLGDAISEIRTAIHPRNVAFFQDYVEVHMKQFHTIMLESGALAGTVSNRK
With B1, the binding result in test [1] and in test [2] was “binds” each time.
